Reference: PMC10163288
Some of the results follow.

B1: il10ra_site1_sap_21_mot_HHH_b1_01874_000000035_0001_1_20_H_._HHH_b1_07467_0001_0000100001_0000003_0_0001 (protein)
chain: SSSSDELSRRIMELIEKAMELDLEGNPEEARELLEEAEKLAEEKGDPLMEVQLRWLLERINSSSS
B2: il10ra_site1_normal_mot_HHH_b2_07731_000000003_0001_42_56_H_._HHH_b2_03755_0001_0000300014_0000001_1_af2pred_0001 (protein)
chain: SSSSSSSDVEEEVRELLEEAEEDPDRAAELLRRAAELAAELNDPELLRLVVEVVQRITSSSSSSS
B3: il10ra_site1_normal_mot_HHH_b1_06914_000000280_0001_1_18_H_._HHH_b2_08355_af2_0001_0000500007_0000001_0_af2pred_0001 (protein)
chain: SSSSSSEEEKSEELREKLEEAVENRDAHLVYRLLKEVLEFVFETNDEELLEVVRRAAHLLSSSSS
B4: il10ra_site1_sap_19_mot_HHH_b2_04680_000000215_0001_1_16_H_._HHH_b1_04594_af2_0001_0001300013_0000001_0_0001 (protein)
chain: SSSSSEEELEELVEELEKLVERNDLERFAELAQEALRLAFQLGDKEVLRRLWELVERIAGSSSSS
B5: il10ra_site1_normal_mot_HHH_b2_00984_000000042_0001_1_20_H_._HHH_b2_05309_0001_0000100012_0000001_0 (protein)
chain: SSSSSEEEEQIEELLEEVKELLRQGDPREALRVLQEAAQLAMRANNAELLQEIWELIRKVASSSS
B6: il10ra_site1_sap_16_mot_0aa80e4383ff73b96d266796d974ca63_0001_000000257_0001_1_11_H_._HHH_b1_04144_af2_0001_0000300005_0000001_0_0001 (protein)
chain: SSSSQEAYEAARRIIEEFIEAVRRGDDERARELLEELRELAEELNNPILRRLVEVLEKALRSSSS
B7: il10ra_site1_sap_17_mot_HHH_b2_05984_000000071_0001_38_52_H_._HHH_b2_07300_af2_0001_0000300006_0000001_0_0001_af2pred_0001 (protein)
chain: SSSSSASERVIRLIREAFKLLHEGNPEEAEELIEEAKKIAEENNNRALRRAIEAAERALRSSSSS
B8: il10ra_site1_sap_14_mot_HHH_b1_02492_000000051_0001_1_21_H_._HHH_b2_05983_0001_0000300015_0000001_0_0001_af2pred_dldesign_0_af2pred (protein)
chain: SSSSDPEAEIKRLYERALALLEAGDEERALELLRELTRLAWETKDPEAIKKALELADRLLESSSS
B9: il10ra_site1_sap_19_mot_HHH_b1_03314_af2_000000278_0001_42_55_H_._HHH_b1_01737_af2_0001_0000400013_0000001_0_0001_af2pred_0001 (protein)
chain: SSSSSEDEERIRELLEEAERALEEGDEEEARKLIAEAYLIAAKNENEEIWEQVLEVFQRLNSSSS
B10: il10ra_site1_normal_mot_e1dd4851c59bc1cdde016f988f6856bd_0001_1_000000200_0001_16_31_H_._HEEHE_2606_0001_0000400023_0000001_1_af2pred_0001 (protein)
chain: TEAEEFVREVEAMAQVANVPSVEVEVHDGRVEVTVEGNDRAAREFELMFRFLALVRGIDVEVEVE
B11: il10ra_site1_normal_mot_HHH_b2_06857_af2_000000179_0001_42_54_H_._HHH_b2_01688_af2_0001_0000100001_0000001_1 (protein)
chain: SSSSSELVQEVYRLLREAAELHSEGNEEEAEEVLEEARRLAEEANNVLLAFQVRFLLRLIGSSSS
B12: il10ra_site1_sap_23_mot_HHH_b1_05052_000000015_0001_1_19_H_._HHH_b2_05916_af2_0001_0000100003_0000001_0_0001 (protein)
chain: SSSSSDKEELAEALHRMIEQALEWGDPESAEMLILALEMLAKELNDPELEELVKELEELLSSSSS
B13: il10ra_site1_normal_mot_39a7b8d0c4c3fc04bafbda6ce6101d3a_0001_1_af2_000000014_0001_34_48_H_._190733a505cf72e9f5bb281964386224_0001_1_af2_0001_0000700024_0000001 … (protein)
chain: DEVEEEIKRVAEEQGDETVAHAVKAIEENLERGLIPPELALLQLLFLAQQLGDPEVIRELRELRK
B14: il10ra_site1_sap_16_mot_HHH_b1_06048_000000117_0001_42_56_H_._HHH_b1_06438_0001_0000600027_0000002_1_0001 (protein)
chain: SSSSNEEMARELVRAALRIARQVPDKETLKHALIAAQLLAEETNDPELEELAKEIEELEESSSSS
B15: il10ra_site1_normal_mot_HHH_b2_02337_000000026_0001_38_52_H_._HHH_b1_06658_0001_0000100013_0000001_0 (protein)
chain: SSSSSDREEEIEELLRQAERLAEEGNPEEATRLLAEAVRLIFELGDEELLRELWELVRRLSSSSS
B16: il10ra_site1_sap_22_mot_HHH_b2_06812_af2_000000299_0001_41_56_H_._44e4ab65238a46b1c89eac5211a0a491_0001_1_0001_0000400022_0000001_0_0001_af2pred_0001 (protein)
chain: SSSSDVEEEIEELLREAKKLAENGNPEEASYLITRAFALATQNRNEELRREVQELAIEETESSSS
B17: il10ra_site1_normal_mot_HHH_b2_01310_000000089_0001_41_55_H_._ems_p1-15H-GBL-16H-GABBL-16H_0175_0001_0001_0002_af2_0001_0000400025_0000001_0_af2pred_0001 (protein)
chain: SSSSSSVIHLAREALKFALRKGDQEGFREILEIFRAFIRGEISEEEASERLEEILRELRSSSSSS
B18: il10ra_site1_sap_23_mot_HHH_b1_02809_af2_000000277_0001_40_57_H_._HHH_b1_02459_0001_0000100004_0000001_0_0001 (protein)
chain: SSSSSSDERKEVYELIREAMEIDDEEERRQVLEEALRLAEELGDRVLLINARYALERTSSSSSSS
B19: il10ra_site1_normal_mot_HHH_b2_00277_af2_000000172_0001_1_17_H_._HHH_b2_01341_0001_0000400021_0000002_0_af2pred_0001 (protein)
chain: SSSSDVEEEVRRLLEEAEEARERGNPEEAHELLHEAAALAARARDLELAYLVVEVYAKINSSSSS
B20: il10ra_site1_normal_mot_HHH_b1_06994_000000193_0001_40_55_H_._HHH_b1_06996_0001_0000100003_0000001_0 (protein)
chain: SSSSDQEEELARAALRLVEQIIRAGNEEDARRFLRAARRAVELLGDDEILRKLEELEEELSSSSS
B21: il10ra_site1_normal_mot_HHH_b1_04163_000000176_0001_1_18_H_._HHH_b1_02443_af2_0001_0000200007_0000002_0 (protein)
chain: SSSSSDEELEELLEKLEELLEKGDEQKLAQVLTRVLELAAELNDEEARELFHKVAEAYFSSSSSS
B22: il10ra_site1_sap_11_mot_1c3c3e46dde0d4e4be3ec3dd9add6289_0001_000000096_0001_34_50_H_._HHH_b2_04467_0001_0000100002_0000002_0_0001 (protein)
chain: SSSSSNEEVQEAQELMREANEIEDPEEARRVAEEAVEILEEAGNRVALFAAELILRDLRSSSSSS
B23: il10ra_site1_normal_mot_HHH_b1_08411_af2_000000053_0001_1_20_H_._HHH_b1_03852_0001_0000300027_0000001_0 (protein)
chain: SSSSQEAFEFLRRIIEEVLELFREGDPEEAERLLEEAREYLQERGNELFVISLEQAEKAIRSSSS
B24: il10ra_site1_sap_21_mot_HHH_b1_05056_000000217_0001_1_20_H_._HHH_b1_03969_0001_0000300035_0000001_0_0001 (protein)
chain: SSSSSEEAWELLREALELRANGNPEEAQEVVEEAEEIAKELGDRAVLFAIEHLIRDLREILSSSS

Target: il10ra, Q13651
Assay: yeast display titration

Binder | apparent Kd
B1 | inactive: no binding seen
B2 | inactive: no binding seen
B3 | inactive: no binding seen
B4 | inactive: no binding seen
B5 | inactive: no binding seen
B6 | inactive: no binding seen
B7 | inactive: no binding seen
B8 | inactive: no binding seen
B9 | inactive: no binding seen
B10 | inactive: no binding seen
B11 | inactive: no binding seen
B12 | inactive: no binding seen
B13 | inactive: no binding seen
B14 | inactive: no binding seen
B15 | inactive: no binding seen
B16 | inactive: no binding seen
B17 | inactive: no binding seen
B18 | inactive: no binding seen
B19 | inactive: no binding seen
B20 | inactive: no binding seen
B21 | inactive: no binding seen
B22 | inactive: no binding seen
B23 | inactive: no binding seen
B24 | inactive: no binding seen
